The data set in a line: Resist curing properties: lowest exposure quantity of a phenol resin/melamine negative resist film. The conditions noted are these: for Resist curing properties: 1 part photoacid generator in phenol resin/CYMEL 300 resist, film about 3 μm, PEB 10 minutes 120° C., 0.5% potassium hydroxide development; for Lowest exposure quantity: lowest exposure (365 nm) giving change in film thickness before and after development within 10%. As to the method:
A resin solution of 75 parts of a phenol resin (“PHENOLITE TD 431” available from DIC Corporation), 25 parts of a melamine curing agent (“CYMEL 300” available from MITSUI CYANAMID Co., Ltd.), 1 part of a synthesized photoacid generator and 200 parts of propylene glycol monomethyl ether acetate (hereinafter, abbreviated as PGMEA) was applied on a glass substrate of 10 cm square under a condition of 10 seconds at 1000 rpm using a spin coater. Then, the applied film was dried under vacuum for 5 minutes at 25° C., after which the film was dried for 3 minutes on an 80° C. hot plate to form a resist film with a film thickness of about 3 μm. The whole face of this resist film was exposed with a prescribed dose of ultraviolet light having a wavelength limited by the L-34 filter (a filter cutting light with a wavelength less than 340 nm, available from Kenko Optical Co., Ltd.) using an ultraviolet irradiation device (HMW-661F-01 available from ORC MANUFACTURING CO., LTD.). In this connection, a wavelength of 365 nm was measured for the integrated exposure quantity. Then, the film was subjected to post exposure baking (PEB) for 10 minutes with a 120° C. fair wind dryer, after which the film was immersed for 30 seconds in a 0.5% potassium hydroxide solution to be subjected to development, washed immediately with water and dried.
The film thickness of this resist film was measured using a shape measuring microscope (super-depth shape measuring microscope VK-8550, available from KEYENCE CORPORATION).
In this context, the resist curing properties were evaluated according to the following criteria on the basis of the lowest exposure quantity with which a change in film thickness of the resist film before and after development of within 10% was attained.
◯: The lowest exposure quantity is 250 mJ/cm^2 or less. Δ: The lowest exposure quantity is greater than 250 mJ/cm^2 and 500 mJ/cm^2 or less. x: The lowest exposure quantity is greater than 500 mJ/cm^2.

Molecules are shown by their SMILES.

Turning to `CC1(C)[C@@H]2CC[C@@]1(CS(=O)(=O)ON1C(=O)c3cccc4c([Si](C)(C)C)ccc(c34)C1=O)C(=O)C2` [Example A-58, 4-trimethylsilyl-1,8-naphthalimide-(+)-10-camphorsulfonate], the Resist curing properties result is on record as “∘” and the Lowest exposure quantity is recorded as 170 mJ/cm^2.
Taken in the same sequence, the figures for `CC1(C)C2CCC1(CS(=O)(=O)ON1C(=O)c3cccc4c(C(=O)Cc5ccccc5)ccc(c34)C1=O)C(=O)C2` (stereo not drawn) [Example A-44, 4-phenylacetyl-1,8-naphthalimide-(+)-10-camphorsulfonate] were “∘” and 210 mJ/cm^2.
Taken in the same sequence, the figures for `O=C1c2cccc3c(OCC(F)(F)C(F)F)ccc(c23)C(=O)N1OS(=O)(=O)c1c(F)c(F)c(F)c(F)c1F` [Example A-23, 4-(2,2,3,3-tetrafluoro-1-propoxy)-1,8-naphthalimide pentafluorobenzenesulfonate] were “∘” and 120 mJ/cm^2.
As for `CC1(C)C2CCC1(CS(=O)(=O)ON1C(=O)c3cccc4c(C(F)(F)C(F)(F)C(F)(F)C(F)(F)F)ccc(c34)C1=O)C(=O)C2` (stereo not drawn) [Example A-56, 4-(nonafluorobutyl)-1,8-naphthalimide-(+)-10-camphorsulfonate], the Lowest exposure quantity worked out at 440 mJ/cm^2.
Regarding `O=C1c2cccc3c(Oc4cccc(C(F)(F)F)c4)ccc(c23)C(=O)N1OS(=O)(=O)C(F)(F)F` [Example A-6, 4-(3-trifluoromethylphenoxy)-1,8-naphthalimide trifluoromethanesulfonate], the Resist curing properties entry is “∘” and the Lowest exposure quantity is on record as 55 mJ/cm^2.
Turning to `COc1cc2c3c(cccc3c1)C(=O)N(OS(=O)(=O)c1c(F)c(F)c(F)c(F)c1F)C2=O` [Example A-28, 3-methoxy-1,8-naphthalimide pentafluorobenzenesulfonate], the Resist curing properties entry is “∘” and the Lowest exposure quantity came out at 140 mJ/cm^2.
For `CC(C)Oc1ccc2c3c(cccc13)C(=O)N(OS(=O)(=O)CC13CCC(CC1=O)C3(C)C)C2=O` (stereo not drawn) [Example A-41, 4-isopropoxy-1,8-naphthalimide-(+)-10-camphorsulfonate], in that order: “∘” and 210 mJ/cm^2.
For `CCCCC(CC)C(=O)Oc1cc2c3c(cccc3c1)C(=O)N(OS(=O)(=O)c1c(F)c(F)c(F)c(F)c1F)C2=O` (stereo not drawn) [Example A-29, 3-(2-ethylhexanoyloxy)-1,8-naphthalimide pentafluorobenzenesulfonate], in that order: “∘” and 80 mJ/cm^2.
Taken in the same sequence, the figures for `O=C(Oc1cc2c3c(cccc3c1)C(=O)N(OS(=O)(=O)c1c(F)c(F)c(F)c(F)c1F)C2=O)c1c(F)c(F)c(F)c(F)c1F` [Example A-32, 3-pentafluorobenzoyloxy-1,8-naphthalimide pentafluorobenzenesulfonate] were “∘” and 90 mJ/cm^2.
Regarding `CC1(C)C2CCC1(CS(=O)(=O)ON1C(=O)c3cccc4c(OCC(F)(F)C(F)F)ccc(c34)C1=O)C(=O)C2` (stereo not drawn) [Example A-43, 4-(2,2,3,3-tetrafluoro-1-propoxy)-1,8-naphthalimide-(+)-10-camphorsulfonate], the Resist curing properties entry is on record as “∘” and the Lowest exposure quantity is 180 mJ/cm^2.
For `CC1(C)C2CCC1(CS(=O)(=O)ON1C(=O)c3cccc4c(Oc5c(F)c(F)c(F)c(F)c5F)ccc(c34)C1=O)C(=O)C2` (stereo not drawn) [Example A-45, 4-pentafluorophenoxy-1,8-naphthalimide-(+)-10-camphorsulfonate], in that order: “∘” and 140 mJ/cm^2.
For `O=C1c2cccc3c(Sc4ccccc4)ccc(c23)C(=O)N1OS(=O)(=O)c1c(F)c(F)c(F)c(F)c1F` [Example A-27, 4-phenylthio-1,8-naphthalimide pentafluorobenzenesulfonate], in that order: “∘” and 140 mJ/cm^2.
Take `CC1(C)C2CCC1(CS(=O)(=O)ON1C(=O)c3cccc4cccc(c34)C1=O)C(=O)C2` (stereo not drawn) [A′-5, 1,8-naphthalimide-(+)-10-camphorsulfonate, reference compound]: the Lowest exposure quantity is listed as 480 mJ/cm^2.
As to `CC(C)Oc1ccc2c3c(cccc13)C(=O)N(OS(=O)(=O)c1c(F)c(F)c(F)c(F)c1F)C2=O` [Example A-21, 4-isopropoxy-1,8-naphthalimide pentafluorobenzenesulfonate], the Resist curing properties entry was “∘” and the Lowest exposure quantity was 140 mJ/cm^2.
For `O=C1c2cccc3c(Oc4c(F)c(F)c(F)c(F)c4F)ccc(c23)C(=O)N1OS(=O)(=O)C(F)(F)F` [Example A-5, 4-pentafluorophenoxy-1,8-naphthalimide trifluoromethanesulfonate], in that order: “∘” and 50 mJ/cm^2.
With `O=C(Oc1cc2c3c(cccc3c1)C(=O)N(OS(=O)(=O)C(F)(F)F)C2=O)c1ccccc1` [Example A-11, 3-benzoyloxy-1,8-naphthalimide trifluoromethanesulfonate], the Resist curing properties entry is listed as “∘” and the Lowest exposure quantity worked out at 60 mJ/cm^2.
Taken in the same sequence, the figures for `C[Si](C)(C)c1ccc2c3c(cccc13)C(=O)N(OS(=O)(=O)C(F)(F)F)C2=O` [Example A-18, 4-trimethylsilyl-1,8-naphthalimide trifluoromethanesulfonate] were “∘” and 60 mJ/cm^2.
As to `C[Si](C)(C)c1ccc2c3c(cccc13)C(=O)N(OS(=O)(=O)c1c(F)c(F)c(F)c(F)c1F)C2=O` [Example A-38, 4-trimethylsilyl-1,8-naphthalimide pentafluorobenzenesulfonate], the Resist curing properties result is listed as “∘” and the Lowest exposure quantity is 110 mJ/cm^2.
Taken in the same sequence, the figures for `CC1(C)C2CC[C@@]1(CS(=O)(=O)ON1C(=O)c3cc(C45CC6CC(CC(C6)C4)C5)cc4cc(C56CC7CC(CC(C7)C5)C6)cc(c34)C1=O)C(=O)C2` [Example A-55, 3,6-diadamantyl-1,8-naphthalimide-(+)-10-camphorsulfonate] were “∘” and 160 mJ/cm^2.
`O=C1c2cccc3cccc(c23)C(=O)N1OS(=O)(=O)c1c(F)c(F)c(F)c(F)c1F` [A′-3, 1,8-naphthalimide pentafluorobenzenesulfonate, reference compound] registered a Lowest exposure quantity of 360 mJ/cm^2.
`CC1(C)C2CCC1(CS(=O)(=O)ON1C(=O)c3cccc4c(C(F)(F)C(F)(F)C(F)(F)C(F)(F)C(F)(F)C(F)(F)C(F)(F)C(F)(F)F)ccc(c34)C1=O)C(=O)C2` (stereo not drawn) [Example A-57, 4-(heptadecafluoro-n-octyl)-1,8-naphthalimide-(+)-10-camphorsulfonate] came in with a Lowest exposure quantity of 410 mJ/cm^2.
On to `CC(C)Oc1ccc2c3c(cccc13)C(=O)N(OS(=O)(=O)C(F)(F)F)C2=O` [Example A-1, 4-isopropoxy-1,8-naphthalimide trifluoromethanesulfonate], for which the Resist curing properties result is “∘” and the Lowest exposure quantity is 75 mJ/cm^2.
For `O=C1c2cccc3c(Cl)ccc(c23)C(=O)N1OS(=O)(=O)c1c(F)c(F)c(F)c(F)c1F` [Example A-39, 4-chloro-1,8-naphthalimide pentafluorobenzenesulfonate], in that order: “∘” and 160 mJ/cm^2.

The values are drawn from patent US20160368879A1, “PHOTOACID GENERATOR, AND RESIN COMPOSITION FOR PHOTOLITHOGRAPHY” (SAN-APRO LTD., priority 2013, published 2016).
